According to the supplement of paper PMC8728848:
The other results are listed elsewhere or left out.

Assays:
Experiment in all cases: glycan array binding signal (z-score within array); higher = stronger binding
Conditions in all cases: glycan notation: IUPAC condensed, linker removed
[1] = biological target: Neu5Ac(a2-3)Gal(b1-4)GlcNAc(b1-2)Man(a1-3)[Neu5Ac(a2-6)Gal(b1-4)GlcNAc(b1-2)Man(a1-6)]Man(b1-4)GlcNAc(b1-4)GlcNAc
Method in brief: (§1)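 The binding signal is a Z-score computed within each array and averaged over linkers. Arrays of the same protein sequence at different concentrations or buffers were also averaged together. Data originate from 3228 arrays in the Consortium for Functional Glycomics database, kept only where the protein sequence was available.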

[2] = biological target: Neu5Ac(a2-3)Gal(b1-4)GlcNAc(b1-2)[Neu5Ac(a2-3)Gal(b1-4)GlcNAc(b1-4)]Man(a1-3)[GlcNAc(b1-4)][Neu5Ac(a2-3)Gal(b1-4)GlcNAc(b1-2)[Neu5Ac(a2-3)Gal(b1-4)GlcNAc(b1-6)]Man(a1-6)]Man(b1-4)GlcNAc(b1-4)GlcNAc
Method in brief: as §1

[3] = biological target: Neu5Ac(a2-3)Gal(b1-4)GlcNAc(b1-2)[Neu5Ac(a2-3)Gal(b1-4)GlcNAc(b1-4)]Man(a1-3)[GlcNAc(b1-4)][Neu5Ac(a2-3)Gal(b1-4)GlcNAc(b1-4)Man(a1-6)]Man(b1-4)GlcNAc(b1-4)GlcNAc
Method in brief: as §1

[4] = biological target: Neu5Ac(a2-3)Gal(b1-4)GlcNAc(b1-2)[Neu5Ac(a2-3)Gal(b1-4)GlcNAc(b1-6)]Man(a1-6)[Neu5Ac(a2-3)Gal(b1-4)GlcNAc(b1-2)Man(a1-3)][GlcNAc(b1-4)]Man(b1-4)GlcNAc(b1-4)GlcNAc
Method in brief: as §1

[5] = biological target: Neu5Ac(a2-3)Gal(b1-4)GlcNAc(b1-3)Gal
Method in brief: as §1

[6] = biological target: Neu5Ac(a2-3)Gal(b1-4)GlcNAc(b1-3)Gal(b1-3)GlcNAc
Method in brief: as §1

[7] = biological target: Neu5Ac(a2-3)Gal(b1-4)GlcNAc(b1-3)Gal(b1-4)GlcNAc
Method in brief: as §1

[8] = biological target: Neu5Ac(a2-3)Gal(b1-4)GlcNAc(b1-3)Gal(b1-4)GlcNAc(b1-2)Man(a1-3)[Neu5Ac(a2-3)Gal(b1-4)GlcNAc(b1-3)Gal(b1-4)GlcNAc(b1-2)Man(a1-6)]Man(b1-4)GlcNAc(b1-4)GlcNAc
Method in brief: as §1

[9] = biological target: Neu5Ac(a2-3)Gal(b1-4)GlcNAc(b1-3)Gal(b1-4)GlcNAc(b1-3)Gal(b1-4)GlcNAc
Method in brief: as §1

[10] = biological target: Neu5Ac(a2-3)Gal(b1-4)GlcNAc(b1-3)Gal(b1-4)GlcNAc(b1-3)Gal(b1-4)GlcNAc(b1-2)Man(a1-3)[Neu5Ac(a2-3)Gal(b1-4)GlcNAc(b1-3)Gal(b1-4)GlcNAc(b1-3)Gal(b1-4)GlcNAc(b1-2)Man(a1-6)]GalNAc
Method in brief: as §1

[11] = biological target: Neu5Ac(a2-3)Gal(b1-4)GlcNAc(b1-3)Gal(b1-4)GlcNAc(b1-3)GalNAc
Method in brief: as §1

[12] = biological target: Neu5Ac(a2-3)Gal(b1-4)GlcNAc(b1-3)Gal(b1-4)GlcNAc(b1-3)[Neu5Ac(a2-3)Gal(b1-4)GlcNAc(b1-3)Gal(b1-4)GlcNAc(b1-6)]GalNAc
Method in brief: as §1

[13] = biological target: Neu5Ac(a2-3)Gal(b1-4)GlcNAc(b1-3)Gal(b1-4)GlcNAc(b1-6)[Gal(b1-3)]GalNAc
Method in brief: as §1

[14] = biological target: Neu5Ac(a2-3)Gal(b1-4)GlcNAc(b1-3)Gal(b1-4)[Fuc(a1-3)]GlcNAc
Method in brief: as §1

[15] = biological target: Neu5Ac(a2-3)Gal(b1-4)GlcNAc(b1-3)GalNAc
Method in brief: as §1

[16] = biological target: Neu5Ac(a2-3)Gal(b1-4)GlcNAc(b1-3)[Neu5Ac(a2-3)Gal(b1-4)GlcNAc(b1-6)]GalNAc
Method in brief: as §1

[17] = biological target: Neu5Ac(a2-3)Gal(b1-4)GlcNAc(b1-6)GalNAc
Method in brief: as §1

[18] = biological target: Neu5Ac(a2-3)Gal(b1-4)GlcNAc(b1-6)[Gal(b1-3)]GalNAc
Method in brief: as §1

[19] = biological target: Neu5Ac(a2-3)Gal(b1-4)GlcNAc(b1-6)[Neu5Ac(a2-3)Gal(b1-3)]GalNAc
Method in brief: as §1

[20] = biological target: Neu5Ac(a2-3)Gal(b1-4)GlcNAc6S
Method in brief: as §1

[21] = biological target: Neu5Ac(a2-3)Gal(b1-4)[Fuc(a1-3)]GlcNAc
Method in brief: as §1

[22] = biological target: Neu5Ac(a2-3)Gal(b1-4)[Fuc(a1-3)]GlcNAc(b1-2)Man
Method in brief: as §1

[23] = biological target: Neu5Ac(a2-3)Gal(b1-4)[Fuc(a1-3)]GlcNAc(b1-3)Gal
Method in brief: as §1

[24] = biological target: Neu5Ac(a2-3)Gal(b1-4)[Fuc(a1-3)]GlcNAc(b1-3)Gal(b1-4)GlcNAc
Method in brief: as §1

[25] = biological target: Neu5Ac(a2-3)Gal(b1-4)[Fuc(a1-3)]GlcNAc(b1-3)Gal(b1-4)[Fuc(a1-3)]GlcNAc(b1-3)Gal(b1-4)[Fuc(a1-3)]GlcNAc
Method in brief: as §1

[26] = biological target: Neu5Ac(a2-3)Gal(b1-4)[Fuc(a1-3)]GlcNAc(b1-3)GalNAc
Method in brief: as §1

[27] = biological target: Neu5Ac(a2-3)Gal(b1-4)[Fuc(a1-3)]GlcNAc(b1-6)[Gal(b1-3)]GalNAc
Method in brief: as §1

[28] = biological target: Neu5Ac(a2-3)Gal(b1-4)[Fuc(a1-3)]GlcNAc(b1-6)[Neu5Ac(a2-3)Gal(b1-3)]GalNAc
Method in brief: as §1

[29] = biological target: Neu5Ac(a2-3)Gal(b1-4)[Fuc(a1-3)]GlcNAc6S
Method in brief: as §1

[30] = biological target: Neu5Ac(a2-3)Gal6S(b1-4)GlcNAc
Method in brief: as §1

[31] = biological target: Neu5Ac(a2-3)Gal6S(b1-4)[Fuc(a1-3)]GlcNAc
Method in brief: as §1

[32] = biological target: Neu5Ac(a2-3)GalNAc
Method in brief: as §1

[33] = biological target: Neu5Ac(a2-3)GalNAc(b1-4)GlcNAc
Method in brief: as §1

[34] = biological target: Neu5Ac(a2-3)[GalNAc(b1-4)]Gal(b1-4)Glc
Method in brief: as §1

[35] = biological target: Neu5Ac(a2-3)[GalNAc(b1-4)]Gal(b1-4)GlcNAc
Method in brief: as §1

[36] = biological target: Neu5Ac(a2-3)[GalNAc(b1-4)]Gal(b1-4)GlcNAc(b1-3)GalNAc
Method in brief: as §1

[37] = biological target: Neu5Ac(a2-3)[Neu5Ac(a2-6)]GalNAc
Method in brief: as §1

B1: Epa19 (Candida glabrata) (protein)
chain: MGSSHHHHHHSSGLVPRGSHMASSKDPTRFPIGCSPQVLKTQPGLAVKLYSYGHPVPGCSYITYQYPDFPRSGYKKERKLADITGVNGKIDIDLKPNDPCRVLTGHLPSNYNYPDTLTYTNFTMILYGYFQPKVTGYHTFNLEADDLLFMNLGAGNAFDCCKAESTLDNFGNYQSYSLWGSDYAKANITVFLVSGVYYPIRLFYVNRDNNAVIDFSFTTEFDKEKVHDFTSYFFSASDGEQCPGSV
[1]
  glycan array binding signal (z-score): 0.269
[2]
  glycan array binding signal (z-score): 0.102
[3]
  glycan array binding signal (z-score): -0.197
[4]
  glycan array binding signal (z-score): -1.06
[5]
  glycan array binding signal (z-score): -0.41
[6]
  glycan array binding signal (z-score): -0.403
[7]
  glycan array binding signal (z-score): 0.186
[8]
  glycan array binding signal (z-score): 0.171
[9]
  glycan array binding signal (z-score): 0.026
[10]
  glycan array binding signal (z-score): 1.5
[11]
  glycan array binding signal (z-score): 0.273
[12]
  glycan array binding signal (z-score): 0.493
[13]
  glycan array binding signal (z-score): -0.117
[14]
  glycan array binding signal (z-score): -0.678
[15]
  glycan array binding signal (z-score): 0.601
[16]
  glycan array binding signal (z-score): 0.645
[17]
  glycan array binding signal (z-score): -0.594
[18]
  glycan array binding signal (z-score): -0.019
[19]
  glycan array binding signal (z-score): -0.685
[20]
  glycan array binding signal (z-score): -0.795
[21]
  glycan array binding signal (z-score): -0.341
[22]
  glycan array binding signal (z-score): -0.549
[23]
  glycan array binding signal (z-score): 0.221
[24]
  glycan array binding signal (z-score): 1.79
[25]
  glycan array binding signal (z-score): -0.375
[26]
  glycan array binding signal (z-score): 3.04
[27]
  glycan array binding signal (z-score): 1.34
[28]
  glycan array binding signal (z-score): 0.283
[29]
  glycan array binding signal (z-score): -0.258
[30]
  glycan array binding signal (z-score): -0.438
[31]
  glycan array binding signal (z-score): 0.812
[32]
  glycan array binding signal (z-score): -0.326
[33]
  glycan array binding signal (z-score): -0.055
[34]
  glycan array binding signal (z-score): 0.603
[35]
  glycan array binding signal (z-score): -0.517
[36]
  glycan array binding signal (z-score): -0.115
[37]
  glycan array binding signal (z-score): 0.022
